From PMC13225845

Protein sequences, listed by entry. Tags and fused reporters are not part of them.
UniProt Q09725: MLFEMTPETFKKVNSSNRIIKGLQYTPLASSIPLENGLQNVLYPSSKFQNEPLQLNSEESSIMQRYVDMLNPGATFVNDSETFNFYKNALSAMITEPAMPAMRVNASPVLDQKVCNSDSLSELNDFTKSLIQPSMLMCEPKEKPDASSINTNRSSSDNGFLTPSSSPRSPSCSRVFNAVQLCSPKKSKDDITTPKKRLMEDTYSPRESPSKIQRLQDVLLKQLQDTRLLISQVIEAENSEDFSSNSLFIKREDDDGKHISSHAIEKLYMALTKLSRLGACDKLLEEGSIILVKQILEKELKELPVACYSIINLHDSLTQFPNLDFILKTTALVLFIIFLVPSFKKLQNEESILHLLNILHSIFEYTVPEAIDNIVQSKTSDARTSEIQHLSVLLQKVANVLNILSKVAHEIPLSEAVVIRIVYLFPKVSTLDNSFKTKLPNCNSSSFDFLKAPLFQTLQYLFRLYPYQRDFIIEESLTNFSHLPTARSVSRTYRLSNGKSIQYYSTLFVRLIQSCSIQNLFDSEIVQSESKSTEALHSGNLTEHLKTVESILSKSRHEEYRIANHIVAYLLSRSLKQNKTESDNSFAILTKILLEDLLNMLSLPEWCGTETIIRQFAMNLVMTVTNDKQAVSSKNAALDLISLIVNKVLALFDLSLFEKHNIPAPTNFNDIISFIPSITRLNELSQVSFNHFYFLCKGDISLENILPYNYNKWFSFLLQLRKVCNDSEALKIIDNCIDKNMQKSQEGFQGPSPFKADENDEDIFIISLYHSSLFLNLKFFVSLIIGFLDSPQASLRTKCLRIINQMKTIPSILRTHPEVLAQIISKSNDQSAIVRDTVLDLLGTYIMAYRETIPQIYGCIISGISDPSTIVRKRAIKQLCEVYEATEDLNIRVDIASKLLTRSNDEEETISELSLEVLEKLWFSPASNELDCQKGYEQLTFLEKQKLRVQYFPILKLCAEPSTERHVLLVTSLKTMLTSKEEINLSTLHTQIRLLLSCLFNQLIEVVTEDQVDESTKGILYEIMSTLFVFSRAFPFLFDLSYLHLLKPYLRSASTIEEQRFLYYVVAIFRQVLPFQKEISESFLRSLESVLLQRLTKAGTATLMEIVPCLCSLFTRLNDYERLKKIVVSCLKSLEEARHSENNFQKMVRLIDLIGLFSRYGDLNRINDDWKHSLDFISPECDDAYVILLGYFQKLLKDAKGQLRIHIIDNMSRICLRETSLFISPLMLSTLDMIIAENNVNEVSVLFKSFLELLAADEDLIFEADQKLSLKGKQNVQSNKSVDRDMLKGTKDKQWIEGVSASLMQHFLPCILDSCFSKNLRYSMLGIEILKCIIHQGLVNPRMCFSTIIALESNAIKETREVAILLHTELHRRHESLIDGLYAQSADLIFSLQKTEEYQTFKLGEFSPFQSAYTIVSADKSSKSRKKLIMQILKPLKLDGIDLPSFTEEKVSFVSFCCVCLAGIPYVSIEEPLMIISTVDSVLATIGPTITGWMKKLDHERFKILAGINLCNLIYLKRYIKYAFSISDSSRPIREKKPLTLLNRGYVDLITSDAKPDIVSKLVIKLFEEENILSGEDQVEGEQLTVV
UniProt O74184: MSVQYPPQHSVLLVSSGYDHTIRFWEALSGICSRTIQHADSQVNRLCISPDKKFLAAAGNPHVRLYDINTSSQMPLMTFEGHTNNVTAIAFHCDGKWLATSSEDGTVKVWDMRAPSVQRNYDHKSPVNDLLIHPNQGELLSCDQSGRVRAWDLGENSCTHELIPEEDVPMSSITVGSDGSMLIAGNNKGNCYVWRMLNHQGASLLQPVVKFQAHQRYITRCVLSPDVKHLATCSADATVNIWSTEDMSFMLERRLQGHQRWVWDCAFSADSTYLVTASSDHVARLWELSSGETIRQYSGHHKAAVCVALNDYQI
UniProt P87141: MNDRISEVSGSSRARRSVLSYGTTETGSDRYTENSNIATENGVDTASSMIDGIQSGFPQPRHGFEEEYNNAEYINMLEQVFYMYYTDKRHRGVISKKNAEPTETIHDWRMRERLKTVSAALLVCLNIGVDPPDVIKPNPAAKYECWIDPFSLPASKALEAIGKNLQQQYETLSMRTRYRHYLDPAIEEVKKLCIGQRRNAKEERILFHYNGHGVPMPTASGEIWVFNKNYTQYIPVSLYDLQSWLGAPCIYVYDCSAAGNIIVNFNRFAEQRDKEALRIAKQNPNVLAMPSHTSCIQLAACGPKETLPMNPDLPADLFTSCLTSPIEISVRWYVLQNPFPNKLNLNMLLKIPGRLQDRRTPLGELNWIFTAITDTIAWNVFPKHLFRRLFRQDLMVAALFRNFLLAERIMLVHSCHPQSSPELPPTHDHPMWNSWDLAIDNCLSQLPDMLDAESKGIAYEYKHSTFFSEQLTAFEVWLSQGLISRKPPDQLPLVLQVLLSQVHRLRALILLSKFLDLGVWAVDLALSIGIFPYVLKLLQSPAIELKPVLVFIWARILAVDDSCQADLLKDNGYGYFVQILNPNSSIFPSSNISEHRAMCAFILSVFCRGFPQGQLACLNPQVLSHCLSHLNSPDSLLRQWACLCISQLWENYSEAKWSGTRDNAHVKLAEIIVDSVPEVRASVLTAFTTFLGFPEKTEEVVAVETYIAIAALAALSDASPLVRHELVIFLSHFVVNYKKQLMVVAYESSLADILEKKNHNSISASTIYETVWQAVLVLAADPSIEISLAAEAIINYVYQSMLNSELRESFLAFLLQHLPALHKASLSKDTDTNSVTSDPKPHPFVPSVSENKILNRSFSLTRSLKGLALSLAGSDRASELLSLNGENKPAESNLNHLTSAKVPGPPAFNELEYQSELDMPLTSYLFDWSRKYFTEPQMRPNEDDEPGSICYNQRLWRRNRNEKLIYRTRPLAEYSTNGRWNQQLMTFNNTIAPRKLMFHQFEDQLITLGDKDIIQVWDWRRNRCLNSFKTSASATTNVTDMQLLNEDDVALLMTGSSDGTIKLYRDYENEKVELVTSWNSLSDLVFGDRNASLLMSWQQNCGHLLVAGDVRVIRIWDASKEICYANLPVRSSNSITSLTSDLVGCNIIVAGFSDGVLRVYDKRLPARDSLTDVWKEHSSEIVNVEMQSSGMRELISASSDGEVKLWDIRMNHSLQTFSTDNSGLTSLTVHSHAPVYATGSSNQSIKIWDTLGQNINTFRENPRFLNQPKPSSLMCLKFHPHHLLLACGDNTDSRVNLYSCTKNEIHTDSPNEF

T1: Rad21-PK (cohesin kleisin subunit Rad21) (S. pombe) (UniProt P30776)
T1 sequence: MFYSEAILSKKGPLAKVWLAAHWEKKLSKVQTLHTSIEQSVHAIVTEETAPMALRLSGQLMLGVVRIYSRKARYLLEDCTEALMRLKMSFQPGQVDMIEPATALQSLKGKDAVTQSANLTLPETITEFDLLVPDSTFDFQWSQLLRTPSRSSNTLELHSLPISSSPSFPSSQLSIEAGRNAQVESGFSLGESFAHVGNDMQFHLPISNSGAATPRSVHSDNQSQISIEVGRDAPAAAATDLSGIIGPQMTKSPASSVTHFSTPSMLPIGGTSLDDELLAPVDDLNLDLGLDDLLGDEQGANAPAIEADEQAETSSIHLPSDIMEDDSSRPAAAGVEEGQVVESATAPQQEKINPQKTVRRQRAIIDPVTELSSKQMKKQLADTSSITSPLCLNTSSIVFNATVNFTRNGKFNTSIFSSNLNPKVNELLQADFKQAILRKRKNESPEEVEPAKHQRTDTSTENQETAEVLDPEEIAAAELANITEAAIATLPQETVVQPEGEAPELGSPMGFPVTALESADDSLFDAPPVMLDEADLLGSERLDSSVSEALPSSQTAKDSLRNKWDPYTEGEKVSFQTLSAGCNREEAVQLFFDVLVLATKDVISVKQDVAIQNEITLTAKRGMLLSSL

B1: Toc1 (TORC1 subunit) (protein, UniProt Q9HDW0 1-430)
chain: MQLQSPFGDGISCECLNIRVLGIPNETKHQWIFVPRDLIKIKIYSLLQICKAENCSAVACRGCNLCILAVQGNIEISEEPQKLFQEENVKVYIYDSAISLSSVRASFPISELGIRMDIIKARAEPREDEIRASFSSLVNKEIKRTVEELLLSKRSTNRLSLLAFMRNQQLNYEAYETKLLEDASTIEKSLEKEVKTIYDSNIASPKESSDAIDADHAMIDESRSTQRRKSKPKKHVAFTDEYQVAFSDKPGKYFNQPMQYSKQFKLDNPDYEASSDSLNDIENLSTLTFRSDEELEFDFDTNNINNNKSGDSLEMSTTIPSDEENEDFTSKVDAMEIHSGSLPLNIDSSPIFTNHSPSSSLSSESSFEASPSSFVDRKNRWIQMLKKADEHSRSIQARSMGYVLSDDLDNSKAFRPYKQSFLAQGWKSLN
B2: Psm1 (Smc1 subunit of fission yeast cohesin) (protein, UniProt O94383 1-1228)
chain: MGRLLRLEVENFKSYRGHQIIGPFEDFTSIIGPNGAGKSNLMDAISFVLGVKSSHLRSTNVKELIYRGKILQRDNTDFTDSSNPTTAYVKLMYELDNGEQREYKRAITPSGATEYKIDEEIVTFSEYCGSLQKENILVRARNFLVFQGDVETIASQSPLELSKLVEQISGSLEYKSEYDKSKDEQDKAVNLSAHSFNKKRGINAELRQYQEQKTEAERYQSQKEKRDSAQLVYLLWKLFHLEKSISSNMAEVTRLKADSIQLIERRDENTKEIEKLKEKEGSIRRNLLAFDRKVRKQEKLIASKRPELISIAEKALESKSNLRKIQRKAAEIEKDYSDQASTLQVLENQLTSLSAAEKEFLKDMQEKEQLKGLRLLPEDKEEYEGLRSEADKLNSNLLFKLQTLNRNIKVTSQSKDSLTSIVGDLESKIKSLHESVSSLDTERADLLAKINEKIESLELEKHDQQKKRLTYSELFHKTQELNEELQSCLQKILEASADRNESKQDAKKREALYALKRIYPEVKGRIIDLCTPTQKKYESAIAAALGKNFDAIVVETQAVAKECIDYIKEQRIGIMTFFPMDTIAASPVNQKFRGTHKGARLAIDVLNFESEYERVMISAVGNTLICDSMTVARDLSYNKRLNAKTVTLEGTVIHKTGLITGGSSNNRSAKHWDDHDFDLLTQTKDRLMHQIGEIEYQKSSCVITESDTVKLHSLESEISLLKDKYTVVSRSVEDKKKEIGHYESLIKEKQPHLSELEMELRNFVKSRDELQIQVEKVEEKIFSGFCKRIGISDIHTYDEIHRTFTQSFTQKQLEFTKQKSLLENRISFEKQRVSDTRLRLERMHKFIEKDQESIDNYEQNREALESEVATAEAELELLKEDFASENSKTEKILLAASEKKLVGKRLVSELTKLSGNITLLESEIDRYVSEWHAILRKCKLEDIDVPLREGSLTSIPIDDVSNSGDITMGEEPSEPVINFEKFGVEVDYDELDEELRNDGSESMASVLQEKLREYSEELDQMSPNLRAIERLETVETRLAKLDEEFAAARKAAKNAKERFNAVKQKRLQKFQAAFSHISEQIDPIYKELTKSPAFPLGGTAYLTLDDLDEPYLGGIKFHAMPPMKRFRDMDQLSGGEKTMAALALLFAIHSYQPSPFFVLDEIDAALDQTNVTKIANYIRQHASSGFQFVVISLKNQLFSKSEALVGIYRDQQENSSRTLSINLEGYVE
B3: Tco89 (TORC1 subunit) (protein, UniProt O74428 1-451)
chain: MERPSLSRRTSSSTVSTDGEGVYSRSTKERKRNFIVNSRLKRGGGHVRVNRSGRLGSVTMRPSALTRAHSQNPNSSLVNNSSAVSHLTKQRSLNDLHELNGPKHVAKNGLIPLTQRKPNCVWDDAPVDNDSTAGNLDSDSALPTPSVTTNEAADSSRASSPVTRVVAVHDNKKKIINSNISNAPPFNNTDVQASARPPAAGQDDSAADASTTKSSPVHNEVMAEPLPHSNNREVTQATNQPKWQIHSGSDIASEPPTLSRGNSLSLLANRKVPSTNVKKSQAELYDLGSSTSRTQQKLLIQRASSKFDIVEDDMDTNPSKRFSNPHTKHIMDLVRTQYRNVLRTRELIPEFLEKIRSSYSNNQNFDSQNAFNTSAAGTAGTREETISNGQNGIVASAETSKKDDGVQSASLNASMSARSHARQRSIHVPKTRKDTDYESIHQKLLQLWSQG

Key:
[1] = biological target: Mis4-GFP (cohesin loader Mis4) (S. pombe) (UniProt Q09725); experiment: affinity purification with mass spectrometry; Mis4-GFP or Rad21-PK affinity-purified from protein extracts of G1-arrested cells (cdc10-129 arrest), triplicate samples, label-free mass spectrometry; repeated in mip1-R401G and pef1Δ cells
[2] = biological target: T1, Rad21-PK (cohesin kleisin subunit Rad21) (S. pombe); experiment: as above

Molecule	binding [1]	binding [2]
Wat1/Pop3, the mLST8 orthologue (TORC1 subunit) (from UniProt O74184 1-314)	binds	binds
Mip1, the Raptor equivalent (TORC1 subunit) (from UniProt P87141 1-1313)	binds	binds
B1	binds	binds
B2	–	binds
B3	binds	binds

Results are given in words; binding and its absence hold for the method and conditions named. In cells and extracts the contact can be indirect. Here binding means that the protein was enriched with, or labelled near, the bait; the list need not be complete.
